Data: publication PMC7717530
Results are given in words; binding and its absence hold for the method and conditions named. In cells and extracts the contact can be indirect. Some binding calls cover weakened binding; strength is not graded here.

The chains behind the UniProt entries cited, without tags or fusion partners. Where a name states a change or a piece, a line headed by the entry shows the natural chain unless it says otherwise. A line that says so, or that is headed by a name, gives the form on record, which may keep a tag or linker. Residues count along the entry.
EphA7 full-length isoform with hemagglutinin tag (EphA7-FL-HA) (Q61772, residues 28-998): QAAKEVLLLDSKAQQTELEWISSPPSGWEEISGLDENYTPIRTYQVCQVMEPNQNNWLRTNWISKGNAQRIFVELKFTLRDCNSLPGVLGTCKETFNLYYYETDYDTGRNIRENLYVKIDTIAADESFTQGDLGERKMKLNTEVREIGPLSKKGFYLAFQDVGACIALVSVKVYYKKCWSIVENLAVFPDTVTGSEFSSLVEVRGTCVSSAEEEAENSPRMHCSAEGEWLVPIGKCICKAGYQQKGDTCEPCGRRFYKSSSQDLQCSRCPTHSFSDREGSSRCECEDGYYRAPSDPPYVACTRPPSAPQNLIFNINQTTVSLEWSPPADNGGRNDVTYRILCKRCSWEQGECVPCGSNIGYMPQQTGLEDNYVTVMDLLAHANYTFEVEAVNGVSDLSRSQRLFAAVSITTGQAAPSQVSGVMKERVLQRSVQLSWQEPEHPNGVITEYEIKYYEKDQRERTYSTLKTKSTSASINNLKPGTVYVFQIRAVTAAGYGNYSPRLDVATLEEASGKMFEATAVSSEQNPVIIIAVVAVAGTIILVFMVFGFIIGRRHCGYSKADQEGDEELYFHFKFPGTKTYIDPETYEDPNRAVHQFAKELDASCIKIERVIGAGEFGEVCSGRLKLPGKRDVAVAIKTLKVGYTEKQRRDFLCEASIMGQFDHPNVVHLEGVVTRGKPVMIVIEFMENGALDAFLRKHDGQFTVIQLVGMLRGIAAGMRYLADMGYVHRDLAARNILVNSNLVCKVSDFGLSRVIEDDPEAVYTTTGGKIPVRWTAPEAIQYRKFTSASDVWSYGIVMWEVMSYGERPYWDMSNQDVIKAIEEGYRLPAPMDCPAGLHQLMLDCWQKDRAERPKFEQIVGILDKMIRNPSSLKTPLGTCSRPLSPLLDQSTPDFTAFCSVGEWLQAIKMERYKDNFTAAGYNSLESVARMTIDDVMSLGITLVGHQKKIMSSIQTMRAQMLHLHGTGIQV
EphA7 truncated isoform with myc tag (EphA7-T1-myc) (Q61772-4, form named): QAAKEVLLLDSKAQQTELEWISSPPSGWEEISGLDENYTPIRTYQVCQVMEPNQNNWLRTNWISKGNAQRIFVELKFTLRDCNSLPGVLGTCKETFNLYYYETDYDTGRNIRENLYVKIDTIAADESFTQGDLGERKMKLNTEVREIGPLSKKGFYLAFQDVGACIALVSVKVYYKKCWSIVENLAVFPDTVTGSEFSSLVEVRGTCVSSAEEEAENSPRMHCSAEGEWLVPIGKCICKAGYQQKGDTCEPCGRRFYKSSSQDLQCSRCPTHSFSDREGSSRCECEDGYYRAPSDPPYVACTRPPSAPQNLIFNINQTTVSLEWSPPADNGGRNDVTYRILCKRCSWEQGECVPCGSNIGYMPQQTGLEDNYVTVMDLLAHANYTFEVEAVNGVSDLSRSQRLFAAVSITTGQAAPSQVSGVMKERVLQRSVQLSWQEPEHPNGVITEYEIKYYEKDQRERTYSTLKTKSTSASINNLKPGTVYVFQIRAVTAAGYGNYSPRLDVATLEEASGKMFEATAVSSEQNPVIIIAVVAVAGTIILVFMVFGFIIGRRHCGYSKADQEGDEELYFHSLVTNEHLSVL

Target: EphA7 full-length isoform with hemagglutinin tag (EphA7-FL-HA) (UniProt Q61772)
Experiment: co-IP; HEK cells co-transfected with EphA7-FL-HA and EphA7-T1-myc (1:1, or T1:FL 0.2:1, 1:1, 5:1 with 15 min clustered ephrin-A5-hFC or hFC); lysed in 1% NP-40, 50 mM Tris-HCl pH 8.0, 150 mM NaCl; anti-HA or anti-myc on protein A/G agarose, overnight 4°C; blots for EphA7, HA, myc

For “EphA7 truncated isoform with myc tag (EphA7-T1-myc) (from UniProt Q61772-4 28-610) (receptor)”, the binding was “binds”.
